Some of the results follow.
target: OsWRKY34 (Oryza sativa, UniProt Q0JBA9 1-250); assay: protein-binding microarray (RPBM); PBS, 2% BSA, 51.3 ng/ul salmon testes DNA, 50 uM zinc acetate, 200 nM TF, 25 C, 1 h; high values mean tight binding; conditions: protein: recombinant; tags: N-terminal polyhistidine and DsRed monomer fusion (pET32a); label: CyDye5-dUTP incorporated in the synthesized complementary strand; 3' TTTTT single-stranded linker to array surface; dsDNA, one strand shown
How it was run: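 The binding signal for each feature is its fluorescence intensity in arbitrary units. An Axon 4000B scanner was used to read a custom Agilent array that had been made double-stranded with Cy5-dUTP primer extension, blocked with 2% BSA, incubated at 25 °C for 1 h with 200 nM protein in PBS, 2% BSA, salmon testes DNA and 50 µM zinc acetate, and washed. The protein was an N-terminal polyhistidine–DsRed transcription factor fusion from E. coli BL21-CodonPlus, purified on Ni–NTA.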

Amino acid sequences for entries named in this document (tags omitted).
UniProt Q0JBA9, entry or part of it: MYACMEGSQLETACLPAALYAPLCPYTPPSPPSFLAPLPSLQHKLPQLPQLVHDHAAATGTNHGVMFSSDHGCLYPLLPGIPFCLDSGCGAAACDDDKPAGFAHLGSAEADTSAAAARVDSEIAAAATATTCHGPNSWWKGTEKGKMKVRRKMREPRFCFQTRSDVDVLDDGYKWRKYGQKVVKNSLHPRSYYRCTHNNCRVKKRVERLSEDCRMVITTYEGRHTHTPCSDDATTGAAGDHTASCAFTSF

| Sequence | binding signal |
| --- | --- |
| ATTTTTTTATGATTAGTATTTTTATTGTTGTTAGATGATACGGAGTCACCTAGTGCAG | 11900 fluorescence intensity (a.u.) |
| TTCCTGAACAGCAATTATCACTTCATCTCCTTTGTGGGATCGGAGTCACCTAGTGCAG | 8840 fluorescence intensity (a.u.) |
| GATTGTCTTGATTTGTTTTACTAGGAGGGTTCACATTTCCCGGAGTCACCTAGTGCAG | 11000 fluorescence intensity (a.u.) |
| CTCCACACCTGACACCACGCGGGCTGCCTCCATCGTCATCCGGAGTCACCTAGTGCAG | 8790 fluorescence intensity (a.u.) |
| GAGCCCTCCGCCGCCGCCAGCTCGCCCTTCGCCGAGCCCACGGAGTCACCTAGTGCAG | 8340 fluorescence intensity (a.u.) |
| CTCCCATCTCTCATTCTCACCATTCACCAATGCAGCAACTCGGAGTCACCTAGTGCAG | 10800 fluorescence intensity (a.u.) |
| GCTCTGCTTTGTTTTCAGTTGTAATTTGTAGGCTCAAACTCGGAGTCACCTAGTGCAG | 8450 fluorescence intensity (a.u.) |
| GACCGAGAGCAGGCGACGGGGTGGGTGGAGGTAGTGAGAACGGAGTCACCTAGTGCAG | 9200 fluorescence intensity (a.u.) |
| GGGATCGAGCTAGTTGGGGTTAGCGGTGTGGAAGGGTCGACGGAGTCACCTAGTGCAG | 9120 fluorescence intensity (a.u.) |
| ATCTTTCTCTAACACCGTACACCTTTTTTTCTCTATCTTACGGAGTCACCTAGTGCAG | 10400 fluorescence intensity (a.u.) |
| CTCTGTGCTTAAGTTGAGTTCAATTTCATTTCCAATCACACGGAGTCACCTAGTGCAG | 9300 fluorescence intensity (a.u.) |
| TCCCTACTCCCTCACCGCGCGGCCGCCGCCCCACCCACGCCGGAGTCACCTAGTGCAG | 9330 fluorescence intensity (a.u.) |
| GTACACTCCTCTCAGCCGGTCTATCAATTCCCCTTGGTGTCGGAGTCACCTAGTGCAG | 8760 fluorescence intensity (a.u.) |
| CGAGATCTCCCTCCTTCACCCGCCACCTTCTCTCTTCTCTCGGAGTCACCTAGTGCAG | 10600 fluorescence intensity (a.u.) |
| TTAGTTTGTACTGTGTTCTGCGTTCTTATGTACAGGGCCTCGGAGTCACCTAGTGCAG | 9480 fluorescence intensity (a.u.) |
| GGATACCTCATATGTTGTGTGTCAATGTGTTTGTTATTCTCGGAGTCACCTAGTGCAG | 11800 fluorescence intensity (a.u.) |
| ACGTCTCATCGGCACATGCGTGGGCCCACCCATCCATCCCCGGAGTCACCTAGTGCAG | 10800 fluorescence intensity (a.u.) |
| CCAAATCTTTCAGTTAATGTTATTTTCCCTTTCAATTTATCGGAGTCACCTAGTGCAG | 8090 fluorescence intensity (a.u.) |
| TGTTTTCTGTTCTTTGTTGACTTTAAGTCGCTAAATTTTGCGGAGTCACCTAGTGCAG | 11500 fluorescence intensity (a.u.) |

| Sequence | binding signal |
| --- | --- |
| TAGTAGGGTTTTTTCGCTTGCAACTCCTGCGGCTCGAACACGGAGTCACCTAGTGCAG | 9090 fluorescence intensity (a.u.) |
| TGGGAATACGATCTCTTGGGTTTTGTGCTGTTACTAGCTCCGGAGTCACCTAGTGCAG | 9300 fluorescence intensity (a.u.) |
| TTAGTCGTCTGTTCATATTCTCTCTCCTTACTATTTCACTCGGAGTCACCTAGTGCAG | 9620 fluorescence intensity (a.u.) |
| CTGGTTTTGTAGTTTAGGGTCATGGTTTAGATTTCGATCACGGAGTCACCTAGTGCAG | 11800 fluorescence intensity (a.u.) |
| TGTGGTATTTTTGTCAAACATTTAACCGTCCATCTTATTTCGGAGTCACCTAGTGCAG | 8440 fluorescence intensity (a.u.) |
| GGTTTTACTTGCGATACCCTTCGTCTCCCTCACGTCCCATCGGAGTCACCTAGTGCAG | 10200 fluorescence intensity (a.u.) |
| ATCCTCGACCTCGACTGCGACCACTACGTCAACAACTCGCCGGAGTCACCTAGTGCAG | 10500 fluorescence intensity (a.u.) |
| TCCATCTTTCATCTGTTATTTTGCTCTTGTTTTGATGGTACGGAGTCACCTAGTGCAG | 8410 fluorescence intensity (a.u.) |
| AGTCCTGTAAGCAAGTCTCTGTCCAGTCAATTTGTCAAATCGGAGTCACCTAGTGCAG | 9440 fluorescence intensity (a.u.) |
| ATTTGCAGAGTTATGTTTGTTTCCTATTTTGCCCTGTTTACGGAGTCACCTAGTGCAG | 12800 fluorescence intensity (a.u.) |
| CCCCATCCGCGCCTCCAACTCGCTGTTGCCCTCACCTCGACGGAGTCACCTAGTGCAG | 8980 fluorescence intensity (a.u.) |
| CATGCGGGTCTCATTAACTCTATTGTTTTCTCCGATAGAACGGAGTCACCTAGTGCAG | 10000 fluorescence intensity (a.u.) |
| CGGAGGGAGCTCAGGGAGGGAGGGAGGAGGGGCGGCGATGCGGAGTCACCTAGTGCAG | 13300 fluorescence intensity (a.u.) |
| CGAATTCGCCGTCGCCGTCCCCTAGCATCCGCGCCGCCCACGGAGTCACCTAGTGCAG | 9690 fluorescence intensity (a.u.) |
| AGCCGCTGTCCTCGCCCGCATCCGCTGCGTCATGGCCACCCGGAGTCACCTAGTGCAG | 9200 fluorescence intensity (a.u.) |
| CAGTTTGTGACATAATTTTCTTTGTTGCTTTTTGGTTGACCGGAGTCACCTAGTGCAG | 12600 fluorescence intensity (a.u.) |
| TCGTCGCCATCGCCGCCTCTTCGCTTCTTCATCTCCCCACCGGAGTCACCTAGTGCAG | 8130 fluorescence intensity (a.u.) |
| AAGCGCGGCCGTATTTATCCAACCCGATCGATCGATCGATCGGAGTCACCTAGTGCAG | 8440 fluorescence intensity (a.u.) |

As a short view, part of the list above:

| Sequence | binding signal |
| --- | --- |
| TCCATCTTTCATCTGTTATTTTGCTCTTGTTTTGATGGTACGGAGTCACCTAGTGCAG | 8410 fluorescence intensity (a.u.) |
| AGTCCTGTAAGCAAGTCTCTGTCCAGTCAATTTGTCAAATCGGAGTCACCTAGTGCAG | 9440 fluorescence intensity (a.u.) |
| ATTTGCAGAGTTATGTTTGTTTCCTATTTTGCCCTGTTTACGGAGTCACCTAGTGCAG | 12800 fluorescence intensity (a.u.) |

Reference: publication PMC7819943, “Rice protein-binding microarrays: a tool to detect cis-acting elements near promoter regions in rice”
